Consider one substance from patent US9133262B2 (Ipsen Pharma S.A.S., priority 1996, dated 2015).

The series can be described thus: general procedure: Boc solid-phase peptide synthesis; Benzhydrylamine-polystyrene resin; diisopropylcarbodiimide. The settings on record: whole synthesis, scale 0.5 mmole.

For the substance “H2-D-β-Nal-Cpa-Tyr-D-Trp-Lys-Val-Phe-Thr-NH2”, the isolated mass was determined as 170 mg.
